The text below walks through data of the supplement of paper PMC10849652.

Amino acid sequences for entries named in this document (tags omitted). A change or cut given only in a name is not applied to a line headed by its entry.
UniProt O60890: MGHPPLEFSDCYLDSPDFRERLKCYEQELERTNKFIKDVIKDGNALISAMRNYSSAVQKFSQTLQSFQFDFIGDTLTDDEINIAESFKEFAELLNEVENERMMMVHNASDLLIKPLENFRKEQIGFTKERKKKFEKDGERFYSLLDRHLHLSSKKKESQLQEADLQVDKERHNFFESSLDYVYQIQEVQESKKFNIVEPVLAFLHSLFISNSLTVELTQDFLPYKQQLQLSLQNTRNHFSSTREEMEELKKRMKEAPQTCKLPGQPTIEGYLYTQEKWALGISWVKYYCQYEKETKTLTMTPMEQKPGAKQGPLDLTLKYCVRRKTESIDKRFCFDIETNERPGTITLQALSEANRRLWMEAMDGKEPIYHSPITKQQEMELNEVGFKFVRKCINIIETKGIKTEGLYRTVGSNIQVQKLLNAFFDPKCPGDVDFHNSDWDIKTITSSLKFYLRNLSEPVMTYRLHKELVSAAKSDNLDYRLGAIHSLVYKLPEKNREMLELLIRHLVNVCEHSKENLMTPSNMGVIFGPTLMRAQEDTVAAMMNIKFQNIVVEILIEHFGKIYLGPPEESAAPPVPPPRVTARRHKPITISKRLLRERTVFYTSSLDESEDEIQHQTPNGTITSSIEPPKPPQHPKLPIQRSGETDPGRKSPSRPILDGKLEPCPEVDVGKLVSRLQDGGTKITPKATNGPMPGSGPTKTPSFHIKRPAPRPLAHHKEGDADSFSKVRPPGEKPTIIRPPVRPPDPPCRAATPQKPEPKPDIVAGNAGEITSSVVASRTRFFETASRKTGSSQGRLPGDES
UniProt O95340: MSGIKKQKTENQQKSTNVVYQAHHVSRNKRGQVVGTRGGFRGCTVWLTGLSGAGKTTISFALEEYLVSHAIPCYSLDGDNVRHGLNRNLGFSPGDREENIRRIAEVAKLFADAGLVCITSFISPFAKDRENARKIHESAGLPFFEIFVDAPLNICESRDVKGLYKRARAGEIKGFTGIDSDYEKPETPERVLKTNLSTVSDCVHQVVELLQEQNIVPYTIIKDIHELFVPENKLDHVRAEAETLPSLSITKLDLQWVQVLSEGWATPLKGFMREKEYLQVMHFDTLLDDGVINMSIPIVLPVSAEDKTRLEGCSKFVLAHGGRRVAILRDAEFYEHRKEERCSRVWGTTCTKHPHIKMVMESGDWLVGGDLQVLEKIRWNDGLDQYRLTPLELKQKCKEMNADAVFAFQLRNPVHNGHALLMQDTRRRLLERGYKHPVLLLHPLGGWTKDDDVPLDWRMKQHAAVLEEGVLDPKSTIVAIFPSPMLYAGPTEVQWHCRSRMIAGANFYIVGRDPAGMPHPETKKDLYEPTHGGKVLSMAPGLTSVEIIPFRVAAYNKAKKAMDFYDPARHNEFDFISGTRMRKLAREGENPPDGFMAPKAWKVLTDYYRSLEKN
UniProt P47900: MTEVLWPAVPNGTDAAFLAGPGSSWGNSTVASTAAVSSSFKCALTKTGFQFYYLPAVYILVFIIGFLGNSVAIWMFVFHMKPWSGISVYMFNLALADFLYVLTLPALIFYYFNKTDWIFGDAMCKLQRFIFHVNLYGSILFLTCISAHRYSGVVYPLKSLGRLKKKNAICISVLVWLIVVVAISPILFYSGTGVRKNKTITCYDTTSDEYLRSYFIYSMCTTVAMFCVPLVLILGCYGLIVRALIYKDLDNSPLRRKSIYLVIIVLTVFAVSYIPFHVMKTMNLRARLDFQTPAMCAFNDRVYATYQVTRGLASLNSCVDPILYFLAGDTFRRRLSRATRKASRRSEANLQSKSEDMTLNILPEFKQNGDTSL
UniProt Q8TEW8: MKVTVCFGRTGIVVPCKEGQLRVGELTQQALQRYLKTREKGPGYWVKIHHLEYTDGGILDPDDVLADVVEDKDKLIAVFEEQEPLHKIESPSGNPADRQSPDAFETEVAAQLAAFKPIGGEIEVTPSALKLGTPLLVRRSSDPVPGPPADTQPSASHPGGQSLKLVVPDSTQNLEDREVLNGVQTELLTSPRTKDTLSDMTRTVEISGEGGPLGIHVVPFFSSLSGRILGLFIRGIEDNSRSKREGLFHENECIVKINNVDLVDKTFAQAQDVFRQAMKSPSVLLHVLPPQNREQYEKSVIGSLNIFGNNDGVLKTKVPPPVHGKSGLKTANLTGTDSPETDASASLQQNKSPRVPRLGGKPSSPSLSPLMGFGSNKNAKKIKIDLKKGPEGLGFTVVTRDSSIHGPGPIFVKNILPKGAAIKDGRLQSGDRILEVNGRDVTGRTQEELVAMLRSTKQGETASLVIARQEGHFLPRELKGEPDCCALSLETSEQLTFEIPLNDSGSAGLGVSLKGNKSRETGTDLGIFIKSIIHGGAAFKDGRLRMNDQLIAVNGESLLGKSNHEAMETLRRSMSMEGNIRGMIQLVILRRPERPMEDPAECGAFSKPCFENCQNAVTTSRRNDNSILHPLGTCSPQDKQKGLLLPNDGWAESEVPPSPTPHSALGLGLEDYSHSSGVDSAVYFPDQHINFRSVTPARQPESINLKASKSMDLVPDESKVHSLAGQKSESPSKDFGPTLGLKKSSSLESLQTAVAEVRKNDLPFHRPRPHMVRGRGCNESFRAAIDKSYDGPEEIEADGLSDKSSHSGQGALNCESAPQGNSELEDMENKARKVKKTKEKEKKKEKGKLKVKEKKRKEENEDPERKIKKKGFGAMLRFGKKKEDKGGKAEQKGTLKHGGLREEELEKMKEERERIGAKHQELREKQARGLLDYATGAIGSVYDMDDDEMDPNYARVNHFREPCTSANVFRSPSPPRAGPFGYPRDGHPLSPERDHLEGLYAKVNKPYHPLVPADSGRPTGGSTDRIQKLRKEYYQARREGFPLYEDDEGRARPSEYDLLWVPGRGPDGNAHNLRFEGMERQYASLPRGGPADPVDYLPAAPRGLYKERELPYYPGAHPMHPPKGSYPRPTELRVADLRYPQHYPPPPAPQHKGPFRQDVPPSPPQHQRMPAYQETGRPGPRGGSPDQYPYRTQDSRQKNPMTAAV
UniProt Q02218: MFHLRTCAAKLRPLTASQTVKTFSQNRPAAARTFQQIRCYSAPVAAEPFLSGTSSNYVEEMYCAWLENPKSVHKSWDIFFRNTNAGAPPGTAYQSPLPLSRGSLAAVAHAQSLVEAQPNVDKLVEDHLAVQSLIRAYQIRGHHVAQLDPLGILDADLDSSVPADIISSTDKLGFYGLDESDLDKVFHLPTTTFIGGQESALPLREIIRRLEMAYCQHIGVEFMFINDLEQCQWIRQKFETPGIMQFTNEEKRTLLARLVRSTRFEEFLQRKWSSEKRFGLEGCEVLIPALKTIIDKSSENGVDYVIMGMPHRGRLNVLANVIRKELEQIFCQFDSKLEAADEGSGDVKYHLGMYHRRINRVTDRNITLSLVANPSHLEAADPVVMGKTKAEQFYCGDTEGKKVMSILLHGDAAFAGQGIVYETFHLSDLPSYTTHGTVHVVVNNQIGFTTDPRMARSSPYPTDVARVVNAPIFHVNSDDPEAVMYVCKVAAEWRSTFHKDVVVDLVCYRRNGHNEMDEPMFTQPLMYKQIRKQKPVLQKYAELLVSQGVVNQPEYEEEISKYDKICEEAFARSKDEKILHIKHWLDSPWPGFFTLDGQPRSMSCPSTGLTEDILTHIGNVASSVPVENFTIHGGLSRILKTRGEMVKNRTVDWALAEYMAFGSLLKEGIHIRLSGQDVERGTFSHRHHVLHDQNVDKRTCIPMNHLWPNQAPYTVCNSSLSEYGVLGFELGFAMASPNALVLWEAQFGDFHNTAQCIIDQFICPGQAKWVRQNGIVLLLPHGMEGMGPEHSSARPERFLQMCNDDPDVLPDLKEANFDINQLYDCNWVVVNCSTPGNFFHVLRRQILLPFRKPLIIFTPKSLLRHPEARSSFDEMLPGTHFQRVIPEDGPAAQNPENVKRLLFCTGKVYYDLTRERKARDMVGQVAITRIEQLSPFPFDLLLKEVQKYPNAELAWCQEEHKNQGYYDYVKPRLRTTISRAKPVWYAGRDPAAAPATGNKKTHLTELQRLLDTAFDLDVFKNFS
UniProt Q9UKK6: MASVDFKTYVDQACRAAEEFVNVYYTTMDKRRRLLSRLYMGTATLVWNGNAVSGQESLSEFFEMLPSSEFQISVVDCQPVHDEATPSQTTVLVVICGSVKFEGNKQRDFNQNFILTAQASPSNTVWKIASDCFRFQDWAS
UniProt Q8N7B6: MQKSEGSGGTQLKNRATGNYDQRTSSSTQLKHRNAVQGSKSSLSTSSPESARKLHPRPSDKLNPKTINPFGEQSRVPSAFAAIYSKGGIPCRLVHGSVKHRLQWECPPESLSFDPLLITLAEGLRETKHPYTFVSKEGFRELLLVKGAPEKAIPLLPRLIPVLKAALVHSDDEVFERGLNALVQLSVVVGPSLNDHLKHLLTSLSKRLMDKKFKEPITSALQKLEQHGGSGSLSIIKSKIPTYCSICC
UniProt Q9H6K4: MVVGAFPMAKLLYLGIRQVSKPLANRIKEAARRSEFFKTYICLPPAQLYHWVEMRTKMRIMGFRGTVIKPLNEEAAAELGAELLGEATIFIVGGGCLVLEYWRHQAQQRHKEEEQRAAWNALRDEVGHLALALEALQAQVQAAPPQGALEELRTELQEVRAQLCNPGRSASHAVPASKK
UniProt Q5JRK9: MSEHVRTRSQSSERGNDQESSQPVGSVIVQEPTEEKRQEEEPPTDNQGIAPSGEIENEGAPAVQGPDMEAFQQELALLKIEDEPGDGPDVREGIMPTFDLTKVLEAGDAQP

Common to all, as to assay: log2 fold change, soluble protein after heating vs DMSO (PISA); higher = thermal stabilisation; K562 lysate, 10 uM; active = over 0.2 and 3.5 SD of the protein, either way, in both replicates (recomputed)
Compound in test [1]: C1=CC=C(C=C1)[C@H](COC2=CC3=C(C=C2)NC(=O)N3)NC(=O)C4=CC=CN(C4=O)CC5=CC(=C(C=C5)F)F
The method in brief:
(§1)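 Log-two fold change in thermal stability relative to solvent controls is reported from duplicates. For each sample, crude K562 extract from dounce-homogenised pellets in PBS pH 7.4 with 1 mM MgCl2, at 1 mg/mL protein, was treated with 10 μM compound for 30 min. Aliquots heated for 3 min across 48°C-58°C were pooled, brought to 0.5% NP-40 at 4°C and cleared at 21,000xg for 90 min. The supernatant was quantified by TMTpro 16plex LC-MS/MS with channel sums equalised.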

Compound in test [2]: CC1=C(SC2=C1C(=N[C@H](C3=NN=C(N32)C)CC(=O)N)C4=CC=C(C=C4)Cl)C
The procedure, abridged: as §1

Compound in test [3]: Cc1sc2c(c1C)C(c1ccc(Cl)cc1)=N[C@@H](CC(=O)OC(C)(C)C)c1nnc(C)n1-2
The method in brief:
as §1

Compound in test [4]: c1ccc([C@@H]2C[C@H]2NC2CCNCC2)cc1
The method in brief:
as §1

Compound in test [5]: CC1=C2C(=CC=C1)N=C(N(C2=O)C3=CC=CC=C3C)CN4C=NC5=C(N=CN=C54)N
The procedure, abridged:
as §1

The list shows a part of the results.

As for OPHN1 (UniProt O60890), the log2 fold change is inactive: 0.068 in test [1], inactive: -0.035 in test [2], inactive: -0.047 in test [3] and inactive: -0.017 in test [4].

For PAPSS2 isoform 2 (UniProt O95340), the log2 fold change in test [1] was inactive: 0.012; in test [2] it was inactive: -0.092; in test [5] it was inactive: -0.01; in test [4], inactive: -0.207.

Consider P2RY1 (UniProt P47900), for which the log2 fold change was inactive: -0.153 in test [1], inactive: 0.163 in test [2], inactive: -0.047 in test [3] and inactive: -0.022 in test [4].

For PARD3B (UniProt Q8TEW8), the log2 fold change in test [3] is inactive: 0.138; in test [4], inactive: -0.085.

On to OGDH isoform 2 (UniProt Q02218), for which the log2 fold change in test [4] is inactive: 0.015.

On to NXT1 (UniProt Q9UKK6), for which the log2 fold change in test [1] was inactive: 0.067; in test [2], inactive: 0.366; in test [5], inactive: 0.322; in test [4] it was inactive: -0.153.

For PACRGL (UniProt Q8N7B6), the log2 fold change was inactive: 0.238 in test [3] and inactive: -0.021 in test [4].

For the target OPA3 isoform 2 (UniProt Q9H6K4), the log2 fold change in test [3] was inactive: 0.013.

In the case of PAGE2B (UniProt Q5JRK9), the log2 fold change in test [5] was inactive: -0.031; in test [3], inactive: -0.072; in test [4], inactive: 0.182.
